Reference: PubChem BioAssay AID504467 (National Center for Advancing Translational Sciences (NCATS), 2011)
Screen size: about 330,000 compounds; about 7,700 (2.3%) were called active. The inconclusive results got no clear call from the source; some entries with a clear call stand among them for comparison. Calls follow the shape of the dose curve; as a rule, active = well fitted inhibition curve with a large enough effect; inconclusive = small, poorly fitted or top-dose-only effect, or effect the other way; inactive = flat fitted curve, though single readings scatter. Potencies of inconclusive entries are doubtful fits and often do not repeat.

Test: qHTS screen for small molecules that inhibit ELG1-dependent DNA repair in human embryonic kidney (HEK293T) cells expressing luciferase-tagged ELG1; also: nearly all actives have a fitted effect of over 55% in size
Conditions: HEK293T ELG1-luciferase reporter, luminescence, 16 h, DNA damage induced by 5-fluorouridine; series mostly up to 46.1 µM
Summary of the method: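 Quantitative HTS, concentration-response format. 2,000 cells/well co-treated with 5-fluorouridine and compound, 16 hr in 5% CO2 at 37 °C; ONE-Glo luminescence read after 30 min.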
Potency is read from the fitted curve at half-maximal effect.

With `CCc1ccc(OCC(=O)N/N=C\c2ccco2)c([N+](=O)[O-])c1` as the molecule, how does the Potency read?
The Potency was inconclusive: 16.4 µM [activator, partial curve].

For `O=C(COC(=O)c1ccc(Br)cc1)NC(=O)NCc1ccccc1`, which Potency is on record?
Its Potency is “inactive”.

For `CC1(C)CC(=O)N(CC(=O)NCc2ccccc2)c2ccccc2S1(=O)=O`, which Potency is on record?
The Potency was “inactive”.

For `COc1ccc(C)cc1N(CC(=O)Nc1cccc(N(C)S(C)(=O)=O)c1)S(C)(=O)=O`, which Potency is on record?
The Potency was “inactive”.

For `COc1ccc(CCNC(=O)CCN2C(=O)c3cccc4cccc(c34)C2=O)cc1OC`, which Potency is on record?
The Potency was “inactive”.

For `O=C(CCOc1ccccc1)Nc1ccc([N+](=O)[O-])cc1`, which Potency is on record?
Its Potency is inconclusive: 29.1 µM [inhibitor, single point].

For `CCOC(=O)C1CCN(C(=O)c2oc3ccc4c(c3c2C)C(O)CC2(CCCCC2)O4)CC1` (centres undefined), which Potency is on record?
Its Potency is “inactive”.

With `CC(=O)c1ccc(OCCCC(=O)N2CCN(S(=O)(=O)c3ccc(C)cc3C)CC2)cc1` as the molecule, how does the Potency read?
The Potency was inconclusive: 4.61 µM [inhibitor, single point].

Which Potency does the source give for `CCOC(=O)C(=CNc1cc(C)ccc1-n1cccc1)C(=O)OCC` here?
Its Potency is inconclusive: 25.9 µM [inhibitor, partial curve, poor fit].

With `CC1CC(C)CN(CCCNC(=O)COc2cc(=O)n(C)c3ccccc23)C1` (centres undefined) as the molecule, how does the Potency read?
The Potency was inconclusive: 20.6 µM [activator, single point].

For `COc1cc(OC)c(OC)cc1CN1CCN(c2ccccc2OC)CC1`, which Potency is on record?
Its Potency is “inactive”.

For `COc1ccc2nc(N3CCCC(O)C3)c(C#N)cc2c1` (centres undefined), which Potency is on record?
The Potency was inconclusive: 14.6 µM [activator, partial curve].

Which Potency does the source give for `CCCC(NC(=O)CCc1c(C)c2cc3c(-c4ccccc4)coc3cc2oc1=O)C(=O)O` (centres undefined) here?
The Potency was “inactive”.

For `O=C(NC1CCCc2ccccc21)C1CCN(S(=O)(=O)c2ccccc2F)CC1` (centres undefined), which Potency is on record?
Its Potency is inconclusive: 9.2 µM [inhibitor, partial curve, poor fit].

With `COC(=O)[C@@]12CCCCN1[C@H](c1ccc(-c3cccc(Cl)c3)c(OC)c1)[C@@H]1C(=O)N(C)C(=O)[C@@H]12` as the molecule, how does the Potency read?
The Potency was “inactive”.

For `O=C(Nc1ccccc1N1CCCCC1)c1ccc(Cl)c([N+](=O)[O-])c1`, which Potency is on record?
The Potency was “inactive”.

For `CN(C(=O)COC(=O)c1ccc2c(c1)OCO2)C1CCCCC1`, which Potency is on record?
The Potency was inconclusive: 20.6 µM [activator, partial curve].

Which Potency does the source give for `CC(C)(C)c1ccc(NC(=O)Nc2ccc(OCC(=O)N3CCOCC3)cc2)cc1` here?
Its Potency is inconclusive: 5.17 µM [activator, partial curve].

With `O=C(CCN1C(=O)c2ccccc2C1=O)Nc1ccc(-c2cn3ccsc3n2)cc1` as the molecule, how does the Potency read?
The Potency was inconclusive: 7.31 µM [activator, partial curve].

Which Potency does the source give for `CCOC(=O)CSc1nc(=O)n2ccccc2n1` here?
The Potency was “inactive”.

For `CCOC(=O)c1c(NC(=O)COC(=O)CC(NC(C)=O)c2ccccc2)sc(C(=O)NC)c1C` (centres undefined), which Potency is on record?
The Potency was “inactive”.

For `COc1ccc(NC(=O)c2cc3ccccc3o2)cc1OC`, which Potency is on record?
The Potency was inconclusive: 29.1 µM [activator, single point].

Which Potency does the source give for `CC(Cc1ccccc1)C(=O)NCc1nc2ccccc2s1` (centres undefined) here?
Its Potency is inconclusive: 25.9 µM [activator, single point].

Which Potency does the source give for `COc1ccc(NC(=O)CN(C)C(=O)c2cccc(S(=O)(=O)N3CCN(c4ccccc4)CC3)c2)cc1` here?
The Potency was “inactive”.

Which Potency does the source give for `COc1ccccc1N(CC(=O)Nc1ccc(C)cc1Cl)S(=O)(=O)c1cccs1` here?
Its Potency is inconclusive: 23.1 µM [inhibitor, single point].

For `COc1ccc(C2C3=C(CCCC3=O)Nc3n[nH]c(C)c32)cc1OC` (centres undefined), which Potency is on record?
Its Potency is inconclusive: 14.6 µM [activator, partial curve, poor fit].

Which Potency does the source give for `CCCCCOc1ccc(C(=O)N(Cc2ccco2)C2CCS(=O)(=O)C2)cc1` (centres undefined) here?
Its Potency is inconclusive: 13 µM [inhibitor, partial curve, poor fit].

For `COc1ccccc1C(=O)Nc1nc2cc3c(cc2s1)OCCO3`, which Potency is on record?
The Potency was inconclusive: 1.83 µM [activator, full curve].

For `COc1ccccc1C(c1nnnn1CCc1ccccc1)N1CCN(c2ccccc2)CC1` (centres undefined), which Potency is on record?
The Potency was “inactive”.

Which Potency does the source give for `COc1cc(C(=S)N2CCOCC2)ccc1OC(=O)/C=C/c1ccco1` here?
Its Potency is “inactive”.

For `Cc1ccc(-c2cc(C(=O)N3CCc4ccccc4C3)[nH]n2)cc1C`, which Potency is on record?
Its Potency is inconclusive: 23.1 µM [activator, single point].

With `Cn1c(SCC(=O)N2CCOCC2)nnc1-c1cnccn1` as the molecule, how does the Potency read?
The Potency was inconclusive: 0.651 µM [activator, partial curve, poor fit].

With `Cn1cc(S(=O)(=O)NC2CCCC2)c(=O)n(C)c1=O` as the molecule, how does the Potency read?
Its Potency is “inactive”.

With `c1ccc2c(c1)oc1c(NCc3ccc4c(c3)OCO4)ncnc12` as the molecule, how does the Potency read?
The Potency was inconclusive: 29.1 µM [inhibitor, single point].

For `Cc1ccc(NC(=O)CCNS(=O)(=O)c2ccccc2)c(C(=O)c2ccccc2)c1`, which Potency is on record?
Its Potency is “inactive”.

Which Potency does the source give for `Cc1[nH]n(C(N)=S)c(=O)c1N=Nc1ccc(S(=O)(=O)N2CCCC2)cc1` here?
The Potency was inconclusive: 18.4 µM [activator, partial curve, poor fit].

Which Potency does the source give for `O=C(Cc1ccc([N+](=O)[O-])cc1)Nc1nccs1` here?
The Potency was inconclusive: 20.6 µM [inhibitor, single point].

For `COc1ccc2cc3cc(C(=O)NCCC(C)C)oc3nc2c1`, which Potency is on record?
The Potency was inconclusive: 5.8 µM [inhibitor, partial curve, poor fit].

For `C[C@@H](NC(=O)c1nc[nH]c1C(=O)N1CCN(C(=O)OC(C)(C)C)CC1)c1ccccc1`, which Potency is on record?
Its Potency is inconclusive: 3.26 µM [activator, partial curve, poor fit].

Which Potency does the source give for `COc1ccc(NC(=O)CSc2c3c(nc4ccccc24)CCCC3)c(OC)c1` here?
The Potency was “inactive”.

Which Potency does the source give for `CC(C)(C)c1ccc(SCCc2cccnc2)cc1` here?
The Potency was inconclusive: 18.3 µM [activator, partial curve].

With `COc1ccc(C(=O)NCCN2C(=O)S/C(=C\c3cccnc3)C2=O)c(OC)c1OC` as the molecule, how does the Potency read?
The Potency was inconclusive: 23.1 µM [inhibitor, partial curve].

For `CN(C(=O)COC(=O)c1ccccc1Cc1ccccc1)C1CCS(=O)(=O)C1` (centres undefined), which Potency is on record?
Its Potency is “inactive”.

With `CC(NC(=O)CCCCCN1C(=O)c2ccccc2C1=O)c1ccc2c(c1)CCCC2` (centres undefined) as the molecule, how does the Potency read?
Its Potency is inconclusive: 18.4 µM [inhibitor, single point].
